Test results reported in the supplement of paper PMC10849652.
The list shows a part of the results.

Sequences of proteins named here, by UniProt entry; tags and fusion partners are left off. A change or cut given only in a name is not applied to a line headed by its entry.
UniProt Q16842: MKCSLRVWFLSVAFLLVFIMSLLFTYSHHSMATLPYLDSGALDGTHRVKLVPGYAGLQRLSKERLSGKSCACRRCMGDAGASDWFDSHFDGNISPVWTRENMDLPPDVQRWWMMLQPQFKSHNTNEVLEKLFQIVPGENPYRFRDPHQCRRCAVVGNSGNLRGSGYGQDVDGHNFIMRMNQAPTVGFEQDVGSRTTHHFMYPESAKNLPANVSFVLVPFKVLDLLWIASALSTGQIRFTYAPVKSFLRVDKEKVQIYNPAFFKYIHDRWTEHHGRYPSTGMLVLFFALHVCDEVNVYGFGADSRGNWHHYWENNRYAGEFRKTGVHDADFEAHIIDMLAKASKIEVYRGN
UniProt P19623: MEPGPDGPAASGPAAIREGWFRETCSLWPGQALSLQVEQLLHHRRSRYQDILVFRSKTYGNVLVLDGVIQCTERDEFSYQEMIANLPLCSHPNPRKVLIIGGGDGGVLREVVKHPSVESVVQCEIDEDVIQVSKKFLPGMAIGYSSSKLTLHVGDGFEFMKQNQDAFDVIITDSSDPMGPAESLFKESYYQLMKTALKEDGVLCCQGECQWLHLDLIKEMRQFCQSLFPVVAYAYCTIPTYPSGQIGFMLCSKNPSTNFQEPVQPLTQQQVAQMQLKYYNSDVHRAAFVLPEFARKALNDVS
UniProt Q16385, whole entry, looked up: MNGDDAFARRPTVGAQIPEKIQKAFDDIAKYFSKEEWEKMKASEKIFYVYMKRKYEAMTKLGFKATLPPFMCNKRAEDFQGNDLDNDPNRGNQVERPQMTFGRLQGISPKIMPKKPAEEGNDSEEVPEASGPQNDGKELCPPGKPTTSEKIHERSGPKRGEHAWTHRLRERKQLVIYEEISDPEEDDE
UniProt P50502: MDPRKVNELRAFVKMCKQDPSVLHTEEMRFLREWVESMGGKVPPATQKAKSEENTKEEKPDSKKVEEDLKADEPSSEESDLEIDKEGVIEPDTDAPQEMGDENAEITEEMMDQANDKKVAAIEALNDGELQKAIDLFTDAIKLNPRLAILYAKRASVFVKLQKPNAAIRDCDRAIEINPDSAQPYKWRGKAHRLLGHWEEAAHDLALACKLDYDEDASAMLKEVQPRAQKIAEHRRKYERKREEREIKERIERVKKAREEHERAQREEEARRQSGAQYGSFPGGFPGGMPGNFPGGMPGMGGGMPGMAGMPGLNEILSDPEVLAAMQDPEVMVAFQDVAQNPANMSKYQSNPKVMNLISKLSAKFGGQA
UniProt O15270: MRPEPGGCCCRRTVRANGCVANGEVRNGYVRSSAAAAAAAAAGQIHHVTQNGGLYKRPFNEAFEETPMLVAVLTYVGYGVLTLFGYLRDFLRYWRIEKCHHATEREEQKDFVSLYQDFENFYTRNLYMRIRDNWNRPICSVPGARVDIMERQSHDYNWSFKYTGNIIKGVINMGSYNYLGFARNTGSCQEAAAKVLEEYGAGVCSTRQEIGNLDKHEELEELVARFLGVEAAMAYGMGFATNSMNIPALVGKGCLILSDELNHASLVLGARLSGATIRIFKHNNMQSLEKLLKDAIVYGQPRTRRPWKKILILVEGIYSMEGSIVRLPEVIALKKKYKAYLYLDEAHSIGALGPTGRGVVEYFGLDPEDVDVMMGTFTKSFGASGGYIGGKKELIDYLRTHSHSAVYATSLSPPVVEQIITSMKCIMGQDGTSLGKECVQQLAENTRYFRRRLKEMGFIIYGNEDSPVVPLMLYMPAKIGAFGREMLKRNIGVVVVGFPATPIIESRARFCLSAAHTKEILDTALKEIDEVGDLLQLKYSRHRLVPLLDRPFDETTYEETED
UniProt P15907: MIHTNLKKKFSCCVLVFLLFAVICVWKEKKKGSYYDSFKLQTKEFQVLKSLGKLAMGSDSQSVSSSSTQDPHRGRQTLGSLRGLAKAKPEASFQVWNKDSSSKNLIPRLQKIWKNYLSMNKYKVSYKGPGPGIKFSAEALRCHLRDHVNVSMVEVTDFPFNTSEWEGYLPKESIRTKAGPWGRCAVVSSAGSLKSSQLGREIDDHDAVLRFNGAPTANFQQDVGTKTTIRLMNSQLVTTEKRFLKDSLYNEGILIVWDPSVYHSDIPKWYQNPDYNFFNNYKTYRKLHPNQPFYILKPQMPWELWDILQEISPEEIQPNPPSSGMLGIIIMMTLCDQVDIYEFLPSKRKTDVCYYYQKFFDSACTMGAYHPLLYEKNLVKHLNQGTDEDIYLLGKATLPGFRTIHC
UniProt Q9NZD8: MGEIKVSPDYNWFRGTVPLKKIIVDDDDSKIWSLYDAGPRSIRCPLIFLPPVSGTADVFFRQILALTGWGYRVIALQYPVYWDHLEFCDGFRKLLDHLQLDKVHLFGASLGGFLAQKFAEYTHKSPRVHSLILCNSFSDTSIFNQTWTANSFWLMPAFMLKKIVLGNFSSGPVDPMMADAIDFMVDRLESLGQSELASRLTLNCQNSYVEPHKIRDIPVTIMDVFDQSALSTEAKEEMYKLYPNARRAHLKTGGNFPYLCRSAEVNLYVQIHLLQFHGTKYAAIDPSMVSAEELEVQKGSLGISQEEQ
UniProt P42229: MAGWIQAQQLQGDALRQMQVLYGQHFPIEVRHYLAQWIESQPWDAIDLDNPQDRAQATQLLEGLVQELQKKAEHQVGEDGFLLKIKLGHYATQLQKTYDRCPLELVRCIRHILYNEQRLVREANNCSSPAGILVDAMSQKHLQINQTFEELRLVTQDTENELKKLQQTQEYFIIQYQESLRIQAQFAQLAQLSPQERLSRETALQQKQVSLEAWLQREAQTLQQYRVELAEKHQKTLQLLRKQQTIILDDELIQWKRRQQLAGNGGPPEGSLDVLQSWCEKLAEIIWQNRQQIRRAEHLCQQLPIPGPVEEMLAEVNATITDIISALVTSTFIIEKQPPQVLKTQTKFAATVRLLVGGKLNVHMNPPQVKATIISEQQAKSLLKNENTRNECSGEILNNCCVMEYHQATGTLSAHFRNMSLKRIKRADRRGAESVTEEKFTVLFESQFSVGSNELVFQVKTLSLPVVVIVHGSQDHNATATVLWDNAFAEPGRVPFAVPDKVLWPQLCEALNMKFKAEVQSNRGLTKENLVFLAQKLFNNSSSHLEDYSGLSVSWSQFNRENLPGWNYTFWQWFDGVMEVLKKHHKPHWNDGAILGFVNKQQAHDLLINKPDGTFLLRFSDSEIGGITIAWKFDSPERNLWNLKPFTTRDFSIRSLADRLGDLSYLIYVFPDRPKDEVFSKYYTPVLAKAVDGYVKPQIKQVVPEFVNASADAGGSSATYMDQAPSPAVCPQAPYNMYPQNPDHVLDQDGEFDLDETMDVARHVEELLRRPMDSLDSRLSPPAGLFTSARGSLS
UniProt Q9GZT4: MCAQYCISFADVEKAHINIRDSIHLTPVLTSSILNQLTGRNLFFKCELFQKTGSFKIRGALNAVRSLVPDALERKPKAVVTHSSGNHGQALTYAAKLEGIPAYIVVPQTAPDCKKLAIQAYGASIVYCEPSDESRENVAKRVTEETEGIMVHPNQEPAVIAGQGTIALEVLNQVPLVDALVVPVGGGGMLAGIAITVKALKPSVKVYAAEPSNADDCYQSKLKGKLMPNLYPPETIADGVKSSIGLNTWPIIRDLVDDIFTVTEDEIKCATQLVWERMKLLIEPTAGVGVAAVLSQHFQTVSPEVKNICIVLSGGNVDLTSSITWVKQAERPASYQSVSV
UniProt Q96JI7: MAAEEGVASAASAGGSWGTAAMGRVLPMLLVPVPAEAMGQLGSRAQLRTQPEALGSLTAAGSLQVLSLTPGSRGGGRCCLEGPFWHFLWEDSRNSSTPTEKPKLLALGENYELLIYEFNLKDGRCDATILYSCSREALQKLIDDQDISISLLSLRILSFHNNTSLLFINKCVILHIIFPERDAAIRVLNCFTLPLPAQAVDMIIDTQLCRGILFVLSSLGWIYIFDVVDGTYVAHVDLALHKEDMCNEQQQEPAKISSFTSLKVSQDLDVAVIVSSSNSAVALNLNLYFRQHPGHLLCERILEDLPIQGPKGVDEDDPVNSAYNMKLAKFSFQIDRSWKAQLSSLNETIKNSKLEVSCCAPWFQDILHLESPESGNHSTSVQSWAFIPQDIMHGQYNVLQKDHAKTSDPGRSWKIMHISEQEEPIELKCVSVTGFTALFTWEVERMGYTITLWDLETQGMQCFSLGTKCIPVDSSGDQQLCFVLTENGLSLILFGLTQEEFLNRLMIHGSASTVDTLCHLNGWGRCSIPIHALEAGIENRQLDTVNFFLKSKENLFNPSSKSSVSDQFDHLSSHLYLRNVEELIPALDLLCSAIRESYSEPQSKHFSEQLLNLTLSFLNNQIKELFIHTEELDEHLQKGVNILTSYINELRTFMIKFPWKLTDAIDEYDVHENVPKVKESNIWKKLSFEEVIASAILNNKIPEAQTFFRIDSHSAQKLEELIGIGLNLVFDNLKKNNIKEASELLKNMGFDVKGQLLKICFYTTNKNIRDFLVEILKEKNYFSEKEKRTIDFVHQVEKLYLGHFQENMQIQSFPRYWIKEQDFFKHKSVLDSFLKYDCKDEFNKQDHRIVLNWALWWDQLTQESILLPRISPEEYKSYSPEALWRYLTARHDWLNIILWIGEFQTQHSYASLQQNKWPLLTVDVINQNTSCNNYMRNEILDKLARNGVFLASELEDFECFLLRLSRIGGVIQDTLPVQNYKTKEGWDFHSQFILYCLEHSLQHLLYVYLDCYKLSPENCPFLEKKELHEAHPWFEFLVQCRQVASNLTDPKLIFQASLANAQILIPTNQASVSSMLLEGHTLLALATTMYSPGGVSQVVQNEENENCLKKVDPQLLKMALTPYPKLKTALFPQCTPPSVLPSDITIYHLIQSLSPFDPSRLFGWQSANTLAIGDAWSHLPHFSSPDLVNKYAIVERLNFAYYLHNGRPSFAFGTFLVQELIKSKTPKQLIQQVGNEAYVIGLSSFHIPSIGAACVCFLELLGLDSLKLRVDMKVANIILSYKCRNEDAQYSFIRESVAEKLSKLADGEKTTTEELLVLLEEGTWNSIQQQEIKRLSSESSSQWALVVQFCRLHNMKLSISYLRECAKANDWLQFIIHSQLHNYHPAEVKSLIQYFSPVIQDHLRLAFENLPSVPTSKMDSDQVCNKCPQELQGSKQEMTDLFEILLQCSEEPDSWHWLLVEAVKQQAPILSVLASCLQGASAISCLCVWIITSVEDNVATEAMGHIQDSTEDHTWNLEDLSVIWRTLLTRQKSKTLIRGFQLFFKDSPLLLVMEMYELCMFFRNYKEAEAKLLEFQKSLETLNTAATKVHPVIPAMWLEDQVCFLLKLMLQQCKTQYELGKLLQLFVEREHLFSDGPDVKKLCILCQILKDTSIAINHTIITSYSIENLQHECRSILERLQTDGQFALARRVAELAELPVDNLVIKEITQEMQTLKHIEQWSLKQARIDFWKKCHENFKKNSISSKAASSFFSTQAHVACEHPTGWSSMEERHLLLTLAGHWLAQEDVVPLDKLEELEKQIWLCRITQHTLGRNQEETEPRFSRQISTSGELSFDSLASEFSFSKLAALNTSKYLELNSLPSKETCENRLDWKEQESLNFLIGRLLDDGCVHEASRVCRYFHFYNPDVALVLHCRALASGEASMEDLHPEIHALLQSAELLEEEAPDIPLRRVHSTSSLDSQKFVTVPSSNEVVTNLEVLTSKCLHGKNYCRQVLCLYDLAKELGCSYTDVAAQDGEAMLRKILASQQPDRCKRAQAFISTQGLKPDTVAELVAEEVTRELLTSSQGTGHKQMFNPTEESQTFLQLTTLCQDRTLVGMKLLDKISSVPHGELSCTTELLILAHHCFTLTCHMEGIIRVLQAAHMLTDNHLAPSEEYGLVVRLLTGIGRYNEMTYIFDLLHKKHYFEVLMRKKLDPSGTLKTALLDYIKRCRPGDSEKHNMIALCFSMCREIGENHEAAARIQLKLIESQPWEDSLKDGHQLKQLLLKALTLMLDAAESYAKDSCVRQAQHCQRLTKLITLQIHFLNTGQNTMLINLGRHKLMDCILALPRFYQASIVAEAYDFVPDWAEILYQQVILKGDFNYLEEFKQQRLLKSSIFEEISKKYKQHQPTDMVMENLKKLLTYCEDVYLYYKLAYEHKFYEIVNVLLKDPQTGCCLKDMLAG
UniProt Q13103: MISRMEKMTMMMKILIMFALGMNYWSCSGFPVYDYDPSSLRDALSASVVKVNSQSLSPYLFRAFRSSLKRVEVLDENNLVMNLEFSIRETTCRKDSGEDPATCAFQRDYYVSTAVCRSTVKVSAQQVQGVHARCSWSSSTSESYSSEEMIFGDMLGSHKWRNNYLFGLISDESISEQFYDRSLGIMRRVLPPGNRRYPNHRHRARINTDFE
UniProt Q9HD15: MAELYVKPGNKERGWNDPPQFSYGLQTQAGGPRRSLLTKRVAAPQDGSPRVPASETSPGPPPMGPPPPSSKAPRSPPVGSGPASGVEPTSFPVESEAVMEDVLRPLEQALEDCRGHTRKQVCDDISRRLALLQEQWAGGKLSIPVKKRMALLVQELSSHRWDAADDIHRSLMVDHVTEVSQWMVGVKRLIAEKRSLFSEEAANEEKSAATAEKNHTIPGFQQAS

Columns and labels:
Test in all cases: log2 fold change, soluble protein after heating vs DMSO (PISA); higher = thermal stabilisation; K562 cells, 10 uM, 30 min; active = over 0.2 and 3.5 SD of the protein, either way, in both replicates (recomputed)
erlotinib = compound: C#Cc1cccc(Nc2ncnc3cc(OCCOC)c(OCCOC)cc23)c1 [erlotinib]
In short: (§1)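 For each measurement, 10 μM compound was applied for 30 min to K562 cells at 2×10^6 cells/mL. Aliquots were heated for 3 min across 48°C-58°C, pooled, and extracted in PBS with 0.5% NP-40 at 4°C; the supernatant after 21,000xg for 90 min was soluble protein. This was quantified by TMTpro 16plex LC-MS/MS with channel sums equalised, and thermal stability was reported relative to control samples from duplicates, on a log2 fold-change scale.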

[1] = compound: C/C(=N\NC(=O)C1=CC(=CC=C1)S(=O)(=O)N2CCOCC2)/C3=C(C=CC(=C3)Cl)O
In short: as §1

[2] = compound: C1=CC(=C(C=C1Cl)C2=NC3=NC=CN=C3C(=N2)NC4=CC=NC=C4)F
In short: as §1

[3] = compound: C1=CC(=CC=C1C2=NC3=C(N2)C=C(C=C3)C(=O)N)OC4=CC=C(C=C4)Cl
In short: as §1

[4] = compound: C1=CC2=C(C=CC(=C2)/C=C\3/C(=O)NC(=NCC4=CC=CS4)S3)N=C1
In short: as §1

[5] = compound: C1=CC2=NC=CN=C2C=C1/C=C/3\C(=O)NC(=O)S3
In short: as §1

[6] = compound: C1=CC=C(C=C1)C2=NC(=C(N2)C3=CC=NC=C3)C4=CC(=C(C=C4)Cl)O
In short: as §1

[7] = compound: C1=CC=C2C(=C1)C3=NNC4=CC=CC(=C43)C2=O
In short: as §1

[8] = compound: C1CCN(C1)C(=O)NC2=CC=CC(=C2)NC3=NC=C(C(=N3)NCCC4=CN=CN4)Br
In short: as §1

[9] = compound: C1CN(CCC1(CC2=CC=C(C=C2)Cl)N)C3=NC=NC4=C3C=CN4
In short: as §1

Target	log2 fold change (erlotinib)	log2 fold change [1]	log2 fold change [2]	log2 fold change [3]	log2 fold change [4]	log2 fold change [5]	log2 fold change [6]	log2 fold change [7]	log2 fold change [8]	log2 fold change [9]
SQLE (UniProt Q14534)	inactive: -0.002	inactive: 0.025	inactive: -0.005	inactive: 0.009	inactive: 0.071	inactive: 0.007	inactive: 0.03	inactive: -0.019	inactive: 0.03	inactive: 0.026
STARD9 (UniProt Q9P2P6)	inactive: 0.026	inactive: 0.117	inactive: -0.089	inactive: 0.119	inactive: 0.06	inactive: 0	inactive: -0.131	inactive: 0.005	inactive: -0.003	inactive: -0.099
SRFBP1 (UniProt Q8NEF9)	inactive: -0.256	inactive: -0.082	inactive: -0.114	inactive: 0.039	inactive: -0.03	inactive: 0.104	inactive: -0.08	inactive: 0.082	inactive: 0.069	inactive: -0.065
ST3GAL2 (UniProt Q16842)	inactive: 0.032	inactive: 0.07	inactive: -0.069	inactive: 0.009	inactive: -0.085	inactive: -0.052	inactive: -0.057	inactive: 0.045	inactive: -0.024	inactive: 0.108
SRPK2 isoform 2 (UniProt P78362)	inactive: -0.209	inactive: -0.125	inactive: -0.549	inactive: 0.126	inactive: -0.052	inactive: 0.007	inactive: -0.054	inactive: 0.049	inactive: 0.038	inactive: -0.186
STAM2 (UniProt O75886)	inactive: -0.026	inactive: 0.081	inactive: 0.036	inactive: -0.031	inactive: 0.022	inactive: 0.01	inactive: 0.002	inactive: -0.006	inactive: -0.047	inactive: -0.025
SRM (UniProt P19623)	inactive: -0.006	inactive: 0.038	inactive: 0.001	inactive: -0.016	inactive: 0.025	inactive: -0.013	inactive: 0.025	inactive: 0.005	inactive: 0.009	inactive: -0.015
SPAST (UniProt Q9UBP0)	inactive: 0.139	inactive: 0.129	inactive: 0.032	inactive: -0.046	inactive: 0.06	inactive: 0.028	inactive: 0.007	inactive: 0.064	inactive: -0.048	inactive: -0.004
SPINDOC (UniProt Q9BUA3)	inactive: -0.013	inactive: -0.017	inactive: -0.01	inactive: -0.044	inactive: 0.036	inactive: 0.074	inactive: -0.063	inactive: -0.066	inactive: -0.129	inactive: 0.09
SSX2 (UniProt Q16385)	inactive: -0.068	inactive: -0.078	inactive: -0.023	inactive: 0.038	inactive: 0.175	inactive: 0.044	inactive: -0.032	inactive: -0.035	inactive: -0.022	inactive: -0.004
ST13 (UniProt P50502)	inactive: -0.016	inactive: 0.029	inactive: 0.035	inactive: 0.005	inactive: 0.006	inactive: 0.011	inactive: 0.012	inactive: 0.036	inactive: 0.021	inactive: 0
SPTLC2 (UniProt O15270)	inactive: 0.032	inactive: 0.033	inactive: 0.038	inactive: -0.018	inactive: 0.04	inactive: 0.017	inactive: 0.018	inactive: -0.012	inactive: 0.007	inactive: 0.053
ST6GAL1 (UniProt P15907)	inactive: 0.053	inactive: 0.006	inactive: 0.017	inactive: 0.022	inactive: -0.033	inactive: -0.009	inactive: 0.064	inactive: 0.048	inactive: -0.064	inactive: 0.041
SPG21 (UniProt Q9NZD8)	inactive: 0.014	inactive: 0.075	inactive: -0.08	inactive: 0.021	inactive: -0.045	inactive: 0.054	inactive: 0.103	inactive: 0.083	inactive: -0.032	inactive: 0.012
SPTAN1 isoform 2 (UniProt Q13813)	inactive: -0.006	inactive: 0.036	inactive: -0.026	inactive: 0.055	inactive: 0.005	inactive: 0.049	inactive: -0.028	inactive: -0.041	inactive: -0.014	inactive: -0.083
STAT5A (UniProt P42229)	inactive: 0.033	inactive: 0.173	inactive: 0.035	inactive: 0.048	inactive: 0.083	inactive: 0.01	inactive: 0.06	inactive: -0.026	inactive: -0.077	inactive: -0.028
SSBP3 (UniProt Q9BWW4)	inactive: -0.027	inactive: 0.003	inactive: -0.045	inactive: 0.059	inactive: 0.073	inactive: 0.026	inactive: -0.009	inactive: 0.011	inactive: -0.017	inactive: 0.01
SRR (UniProt Q9GZT4)	inactive: 0.005	inactive: -0.088	inactive: 0.074	inactive: 0.073	inactive: 0.086	inactive: 0.046	inactive: -0.078	inactive: 0.04	inactive: 0.025	inactive: -0.026
SPECC1L (UniProt Q69YQ0)	inactive: 0.021	inactive: -0.022	inactive: 0.065	inactive: -0.026	inactive: 0.017	inactive: -0.003	inactive: 0.102	inactive: -0.025	inactive: 0.002	inactive: 0.009
SPG7 (UniProt Q9UQ90)	inactive: 0.03	inactive: -0.02	inactive: -0.028	inactive: 0.002	inactive: 0.074	inactive: 0	inactive: 0.003	inactive: 0.016	inactive: 0.016	inactive: 0.03
SPR (UniProt P35270)	inactive: 0.018	inactive: -0.089	inactive: -0.01	inactive: 0.005	inactive: 0.115	inactive: 0.016	active: 0.732	inactive: 0.096	inactive: 0.02	inactive: 0.034
SPG11 (UniProt Q96JI7)	inactive: 0.586	inactive: 0.148	inactive: -0.089	inactive: -0.084	inactive: 0.128	inactive: -0.108	inactive: -0.275	inactive: -0.073	inactive: 0.405	inactive: -0.002
SPC25 (UniProt Q9HBM1)	inactive: 0.037	inactive: 0.074	inactive: 0.057	inactive: -0.051	inactive: 0.069	inactive: 0.062	inactive: 0.064	inactive: -0.034	inactive: -0.022	inactive: -0.048
SPP2 (UniProt Q13103)	inactive: -0.098	inactive: -0.171	inactive: -0.038	inactive: 0.037	inactive: 0	inactive: -0.064		inactive: -0.259	inactive: -0.001	inactive: 0.12
STAT5B (UniProt P51692)	inactive: 0.027	inactive: -0.148	inactive: 0.035	inactive: 0.071	inactive: 0.028	inactive: -0.013	inactive: -0.007	inactive: -0.061	inactive: -0.077	inactive: -0.013
SRA1 (UniProt Q9HD15)	inactive: 0.07	inactive: 0.041	inactive: 0.012	inactive: 0.002	inactive: 0.028	inactive: 0.018	inactive: -0.045	inactive: -0.008	inactive: -0.034	inactive: -0.009

Fetched one by one from the list above (2):
Target	log2 fold change (erlotinib)	log2 fold change [1]	log2 fold change [2]	log2 fold change [3]	log2 fold change [4]	log2 fold change [5]	log2 fold change [6]	log2 fold change [7]	log2 fold change [8]	log2 fold change [9]
SSBP3 (UniProt Q9BWW4)	inactive: -0.027	inactive: 0.003	inactive: -0.045	inactive: 0.059	inactive: 0.073	inactive: 0.026	inactive: -0.009	inactive: 0.011	inactive: -0.017	inactive: 0.01
SPG11 (UniProt Q96JI7)	inactive: 0.586	inactive: 0.148	inactive: -0.089	inactive: -0.084	inactive: 0.128	inactive: -0.108	inactive: -0.275	inactive: -0.073	inactive: 0.405	inactive: -0.002
